From article PMC4026426
These are yes or no findings as the source states them, for the method shown. Binding seen in cells or lysates may run through a third protein. Some entries that bind do so weakly or less than the wild type. Each block holds one substance with its values, some of them ahead of it.

Amino acid sequences for entries named in this document (tags omitted).
UniProt Q9Z2E1: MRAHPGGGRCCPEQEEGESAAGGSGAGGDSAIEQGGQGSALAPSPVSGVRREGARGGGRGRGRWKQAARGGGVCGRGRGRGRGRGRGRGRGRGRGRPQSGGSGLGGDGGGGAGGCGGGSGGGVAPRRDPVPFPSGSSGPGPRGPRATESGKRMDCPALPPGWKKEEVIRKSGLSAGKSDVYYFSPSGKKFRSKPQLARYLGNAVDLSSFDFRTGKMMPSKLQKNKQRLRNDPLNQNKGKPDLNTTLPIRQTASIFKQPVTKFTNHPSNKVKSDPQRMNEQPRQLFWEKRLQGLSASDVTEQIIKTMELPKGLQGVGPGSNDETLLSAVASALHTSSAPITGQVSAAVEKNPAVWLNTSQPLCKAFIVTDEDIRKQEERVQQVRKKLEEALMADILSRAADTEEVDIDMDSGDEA
UniProt Q9QVP9: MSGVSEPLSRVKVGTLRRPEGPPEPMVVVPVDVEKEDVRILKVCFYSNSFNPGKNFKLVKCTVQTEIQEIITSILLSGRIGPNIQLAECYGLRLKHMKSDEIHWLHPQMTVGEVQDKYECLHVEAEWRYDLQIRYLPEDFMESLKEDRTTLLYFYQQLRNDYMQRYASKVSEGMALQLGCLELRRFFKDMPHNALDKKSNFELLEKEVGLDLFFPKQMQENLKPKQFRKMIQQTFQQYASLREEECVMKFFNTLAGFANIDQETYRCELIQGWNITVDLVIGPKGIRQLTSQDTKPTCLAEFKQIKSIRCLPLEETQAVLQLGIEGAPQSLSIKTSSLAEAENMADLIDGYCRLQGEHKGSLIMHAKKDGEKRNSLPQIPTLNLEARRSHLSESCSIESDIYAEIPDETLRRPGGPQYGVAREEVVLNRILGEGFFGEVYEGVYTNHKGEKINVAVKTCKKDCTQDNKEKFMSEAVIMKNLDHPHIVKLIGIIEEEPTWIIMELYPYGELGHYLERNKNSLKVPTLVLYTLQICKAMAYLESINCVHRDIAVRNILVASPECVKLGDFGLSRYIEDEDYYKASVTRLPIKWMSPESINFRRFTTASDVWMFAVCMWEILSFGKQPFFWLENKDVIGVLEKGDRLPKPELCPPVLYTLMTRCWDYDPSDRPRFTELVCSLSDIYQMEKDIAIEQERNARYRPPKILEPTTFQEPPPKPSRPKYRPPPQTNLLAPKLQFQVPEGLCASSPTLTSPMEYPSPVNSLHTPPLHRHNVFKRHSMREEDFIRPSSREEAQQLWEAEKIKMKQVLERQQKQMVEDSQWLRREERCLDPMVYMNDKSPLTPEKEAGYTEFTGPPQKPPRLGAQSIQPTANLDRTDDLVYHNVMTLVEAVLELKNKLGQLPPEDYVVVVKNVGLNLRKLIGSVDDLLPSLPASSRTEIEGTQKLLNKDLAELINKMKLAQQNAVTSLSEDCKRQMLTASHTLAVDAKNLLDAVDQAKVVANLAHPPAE

Experiments:
[1] = target: methyl-CpG-binding domain protein 2 (MBD2) (mouse (endogenous in MLO-Y4)) (UniProt Q9Z2E1); assay: co-IP; MLO-Y4 osteocytes under static culture (no OFSS); endogenous proteins; immunoprecipitation with anti-MBD2, blot probed with anti-Pyk2 (Y402); buffer 1% Triton-X-100, 145 mM NaCl, 10 mM Tris-Cl pH 7.4, 5 mM EDTA, 2 mM EGTA, 1 mM PMSF
[2] = target: methyl-CpG-binding domain protein 2 (MBD2) (mouse (endogenous in MLO-Y4)) (UniProt Q9Z2E1); assay: co-IP; MLO-Y4 osteocytes after 20 minutes of OFSS; endogenous proteins; immunoprecipitation with anti-MBD2 or anti-Src (Y418), blot probed with anti-Pyk2 (Y402); buffer 1% Triton-X-100, 145 mM NaCl, 10 mM Tris-Cl pH 7.4, 5 mM EDTA, 2 mM EGTA, 1 mM PMSF
[3] = target: methyl-CpG-binding domain protein 2 (MBD2) (mouse (endogenous in MLO-Y4)) (UniProt Q9Z2E1); assay: co-IP; MLO-Y4 osteocyte lysates, static culture; endogenous proteins; antibodies to either Pyk2 or MBD2, reciprocal western blot; buffer 1% Triton-X-100, 145 mM NaCl, 10 mM Tris-Cl pH 7.4, 5 mM EDTA, 2 mM EGTA, 1 mM PMSF; Protein A sepharose
[4] = target: Pyk2 (mouse (endogenous in MLO-Y4)) (UniProt Q9QVP9); assay: as above

binding [2]: binds
Substance: Pyk2 (Y402), activated Pyk2 phosphorylated at tyrosine 402 (from UniProt Q9QVP9 1-1009)
binding [1]: no binding (condition: static culture, without OFSS)

binding [3]: binds
Substance: Pyk2 (from UniProt Q9QVP9 1-1009)

binding [4]: binds
Substance: methyl-CpG-binding domain protein 2 (MBD2) (from UniProt Q9Z2E1 1-414)
